Experimental data reported in PubChem BioAssay AID1671192 (National Center for Advancing Translational Sciences (NCATS), 2021).
Inconclusive means that the source gave no clear call. Such entries were picked first, then a sample of the others. Potencies of inconclusive entries are doubtful fits and often do not repeat. Active and inactive are the calls of the source. Calls follow the shape of the dose curve; as a rule, active = well fitted curve in the direction sought with a large enough effect; inconclusive = small, poorly fitted or top-dose-only effect, or another doubt; inactive = no such curve, though single readings can be large or run the other way.

By UniProt entry, the sequences of proteins in these tests, tags left out. Where a name states a change or a piece, a line headed by the entry shows the natural chain unless it says otherwise.
UniProt P16050: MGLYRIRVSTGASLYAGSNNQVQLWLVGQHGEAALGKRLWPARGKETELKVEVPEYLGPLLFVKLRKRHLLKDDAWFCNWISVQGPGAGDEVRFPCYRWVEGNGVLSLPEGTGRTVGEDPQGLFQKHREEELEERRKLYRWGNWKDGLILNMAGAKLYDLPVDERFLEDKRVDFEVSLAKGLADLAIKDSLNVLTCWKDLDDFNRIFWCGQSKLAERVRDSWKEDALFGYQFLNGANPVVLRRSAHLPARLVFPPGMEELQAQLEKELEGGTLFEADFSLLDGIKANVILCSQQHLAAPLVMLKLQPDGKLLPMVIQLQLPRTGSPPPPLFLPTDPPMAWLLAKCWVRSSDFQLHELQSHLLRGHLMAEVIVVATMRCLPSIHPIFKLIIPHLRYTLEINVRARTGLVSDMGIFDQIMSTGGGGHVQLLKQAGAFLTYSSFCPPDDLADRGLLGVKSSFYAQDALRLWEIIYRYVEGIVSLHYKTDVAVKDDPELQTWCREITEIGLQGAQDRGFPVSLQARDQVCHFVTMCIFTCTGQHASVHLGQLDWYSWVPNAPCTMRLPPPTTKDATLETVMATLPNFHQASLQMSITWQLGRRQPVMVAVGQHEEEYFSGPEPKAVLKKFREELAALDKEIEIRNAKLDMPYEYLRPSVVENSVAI

Target: Polyunsaturated fatty acid lipoxygenase ALOX15 (Homo sapiens) (UniProt P16050)
Assay: Counterscreen qHTS for inhibitors of human arachidonate 12S-lipoxygenase (ALOX12): ALOX15 Assay; as to activity change, negative = inhibition: 0% is about no effect
Conditions: purified ALOX15 enzyme activity; activity change, negative = inhibition: at 110 µM (top of the series) unless noted
Procedure, shortened: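 Purified human ALOX15 (15hLO-1) at 40 nM in 25 mM HEPES, 0.01% Triton X-100, pH 7.5, preincubated with compound 15 min at RT. Then 50 uM arachidonic acid for 30 min; hydroperoxide detected by Fe-xylenol orange as the 573/405 nm absorbance ratio.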

CN(C)C(=O)c1c[nH]c2cccnc12
activity change, negative = inhibition: inconclusive: -37.2% [inhibitor] [at 233 µM]

O=C1NCc2ccccc2CC12CCCN2Cc1cccc(Cl)c1 (centres undefined)
Potency: inconclusive: 77.5 µM [inhibitor, single point]

CCCN1CCCC2(Cc3ccccc3CN(C(=O)Cc3ccccc3)C2)C1 (centres undefined)
Potency: inactive

O=C1NC(=NC2CCCCC2)C2(CCCN(Cc3ccccc3)C2)N1c1cc(F)cc(F)c1 (centres undefined)
Potency: inconclusive: 35 µM [inhibitor, partial curve]

NCCC(=O)N1Cc2ccccc2CC2(CCCCN2CC2CCNCC2)C1 (centres undefined)
Potency: inactive

C[S+](=O)([O-])NC1CC2(CCN(C(=O)CCCN)CC2)c2ccccc21 (centres undefined)
Potency: inconclusive: 98.7 µM [inhibitor, single point]

COc1ccc(C(=O)N2CCOC3(CCN(C(=O)CCN)CC3)C2)cc1
Potency: inconclusive: 0.111 µM [inhibitor, full curve]

O=C1NCc2ccccc2CC12CCN(Cc1ccc(Br)s1)CC2
Potency: inactive

O=S(=O)(c1ccccc1)N1Cc2ccccc2CC2(CCN(Cc3cccnc3)C2)C1 (centres undefined)
Potency: inactive

NCc1ccc(-c2ccc(OC(F)(F)F)cc2)cc1
Potency: inactive

CC(C)CCN1CCC2(C1)C(=O)N(c1ccccc1)c1ccccc12 (centres undefined)
Potency: inconclusive: 15.5 µM [inhibitor, partial curve, poor fit]

O=C1Nc2ccccc2C12CCN(Cc1ccc(C(F)(F)F)cc1)C2 (centres undefined)
Potency: inconclusive: 12.4 µM [inhibitor, partial curve, poor fit]

O=C1Nc2ccccc2CNC12CCN(CC1CCNC1)CC2 (centres undefined)
Potency: inconclusive: 0.0346 µM [inhibitor, full curve]

O=C(C1CCCC1)N1CC2(CCCN(Cc3c[nH]c4ccccc34)C2)Cc2ccccc21 (centres undefined)
Potency: inconclusive: 39.3 µM [inhibitor, partial curve, poor fit]

CN(C)CCCC(=O)N1Cc2ccccc2CC2(CCCCN2Cc2ccccc2)C1 (centres undefined)
Potency: inactive

O=C(O)CCC(=O)N1Cc2ccccc2CC2(CCCN2Cc2ccccc2)C1 (centres undefined)
Potency: inactive

Cc1ccccc1N(C)C1CN(Cc2cccc3ccccc23)C1
Potency: inconclusive: 138 µM [inhibitor, single point]

C/C(=C\c1ccccc1)CN1CCC2(Cc3ccccc3CNC2=O)C1 (centres undefined)
Potency: inconclusive: 0.109 µM [inhibitor, full curve]

COc1cccc(-c2ccc(CN3CCCC(c4nc5ccc(C)cc5c(=O)[nH]4)C3)cc2)c1 (centres undefined)
Potency: inconclusive: 49.4 µM [inhibitor, partial curve, poor fit]

COc1ccccc1-c1ccc(CN2CCCC(c3nc4ccc(F)cc4c(=O)[nH]3)C2)cc1 (centres undefined)
Potency: inconclusive: 78.4 µM [inhibitor, single point]

O=C1NC(=NC2CCCC2)C2(CCN(CC3CCCCC3)CC2)N1c1cc(F)cc(F)c1
Potency: inactive

Cc1ccc(CN2CCCC3(Cc4ccccc4CNC3=O)C2)cc1 (centres undefined)
Potency: inconclusive: 0.0436 µM [inhibitor, full curve, poor fit]

O=C1NCc2ccccc2CC12CCN(Cc1ccc(Br)cc1)C2 (centres undefined)
Potency: inconclusive: 62.2 µM [inhibitor, partial curve, poor fit]

CCC(C)CNc1ncnc2c1CN(C1CCCNCC1)C(=O)CN2C (centres undefined)
Potency: inconclusive: 0.007 µM [inhibitor, full curve]

CC(C)c1nc2c(c(-c3ccc(Cl)cc3)n1)CCN(Cc1ccsc1)CC2
Potency: inconclusive: 0.0879 µM [inhibitor, full curve, poor fit]

O=C(N1CCOCC1)N1CCn2c(nnc2C2CCNCC2)C1
Potency: inconclusive: 0.0869 µM [inhibitor, full curve]

O=C1NCc2ccccc2CC12CCCN(Cc1cccc(OC(F)(F)F)c1)C2 (centres undefined)
Potency: inconclusive: 111 µM [inhibitor, single point]

CNC(C)c1cccc(F)c1 (centres undefined)
Potency: inconclusive: 22.7 µM [inhibitor, partial curve, poor fit]

CC(=O)NCCC(=O)N1Cc2ccccc2CC2(CCN(CC3CCNC3)CC2)C1 (centres undefined)
Potency: inactive

C/C(=C\c1ccccc1)CN1CCCCC12Cc1ccccc1CNC2=O (centres undefined)
Potency: inconclusive: 111 µM [inhibitor, single point]

O=C1NCc2ccccc2CC12CCCN(Cc1ccc(Cl)s1)C2 (centres undefined)
activity change, negative = inhibition: inconclusive: -33.6% [inhibitor]

Cc1ccc(CCN2CCCCC23Cc2ccccc2CN(C(=O)CCCC(=O)O)C3)cc1 (centres undefined)
Potency: inconclusive: 55.5 µM [inhibitor, single point]

O=C(NC1CCCCC1)N1CCCC1c1nnc2n1CCNC2 (centres undefined)
Potency: inconclusive: 48.9 µM [inhibitor, single point]

COc1cccc(N2C(=O)NC(=NC3CCCCC3)C23CCCN(CCC(C)C)C3)c1 (centres undefined)
Potency: inconclusive: 0.0099 µM [inhibitor, full curve]
